# Some of the results follow.
# Key:
# Test in all cases: glycan array binding signal (z-score within array); higher = stronger binding
# Conditions in all cases: glycan notation: IUPAC condensed, linker removed
# [1] = molecular target: GalNAc(a1-3)GalNAc(b1-3)Gal(a1-4)Gal(b1-4)GlcNAc
# Summary of the method: (§1)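 Columns mapping to the same glycan were averaged after glycan names were converted to IUPAC-condensed notation. The data come from 3228 arrays in the Consortium for Functional Glycomics database, limited to those with an available protein sequence. Binding is reported as a within-array Z-score averaged across arrays of one protein sequence and across linkers.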
# [2] = molecular target: GalNAc(b1-3)Gal
# Summary of the method: as §1
# [3] = molecular target: GalNAc(b1-3)Gal(a1-4)Gal(b1-4)GlcNAc
# Summary of the method: as §1
# [4] = molecular target: GalNAc(b1-3)Gal(a1-4)Gal(b1-4)GlcNAc(b1-3)Gal(b1-4)Glc
# Summary of the method: as §1
# [5] = molecular target: GalNAc(b1-3)Gal(a1-6)Gal(b1-4)Glc
# Summary of the method: as §1
# [6] = molecular target: GalNAc(b1-3)GalNAc
# Summary of the method: as §1
# [7] = molecular target: GalNAc(b1-3)GlcNAc
# Summary of the method: as §1
# [8] = molecular target: GalNAc(b1-4)Gal(b1-4)Glc
# Summary of the method: as §1
# [9] = molecular target: GalNAc(b1-4)GlcNAc
# Summary of the method: as §1
# [10] = molecular target: GalNAc(b1-4)GlcNAc(b1-2)Man
# Summary of the method: as §1
# [11] = molecular target: GalNAc(b1-4)GlcNAc(b1-2)Man(a1-3)[GalNAc(b1-4)GlcNAc(b1-2)Man(a1-6)]Man(b1-4)GlcNAc(b1-4)GlcNAc
# Summary of the method: as §1
# [12] = molecular target: GalNAc(b1-4)GlcNAc(b1-3)GalNAc(b1-4)GlcNAc
# Summary of the method: as §1
# [13] = molecular target: GalNAc(b1-4)GlcNAc6S
# Summary of the method: as §1
# [14] = molecular target: GalNAc(b1-6)GalNAc
# Summary of the method: as §1
# [15] = molecular target: GalNAc3S(b1-4)GlcNAc
# Summary of the method: as §1
# [16] = molecular target: GalNAc3S(b1-4)GlcNAc3S
# Summary of the method: as §1
# [17] = molecular target: GalNAc3S(b1-4)[Fuc(a1-3)]GlcNAc
# Summary of the method: as §1
# [18] = molecular target: GalNAc4S6S(b1-4)GlcNAc
# Summary of the method: as §1
# [19] = molecular target: GalNAc6S(b1-4)GlcNAc
# Summary of the method: as §1
# [20] = molecular target: Glc(a1-4)Glc
# Summary of the method: as §1
# [21] = molecular target: Glc(a1-4)Glc(a1-4)Glc(a1-4)Glc
# Summary of the method: as §1
# [22] = molecular target: Glc(a1-6)Glc(a1-6)Glc
# Summary of the method: as §1
# [23] = molecular target: Glc(a1-6)Glc(a1-6)Glc(a1-6)Glc
# Summary of the method: as §1
# [24] = molecular target: Glc(b1-4)Glc
# Summary of the method: as §1
# [25] = molecular target: Glc(b1-6)Glc
# Summary of the method: as §1
# [26] = molecular target: GlcA(b1-3)Gal
# Summary of the method: as §1
# [27] = molecular target: GlcA(b1-3)GlcNAc
# Summary of the method: as §1
# [28] = molecular target: GlcA(b1-6)Gal
# Summary of the method: as §1
# [29] = molecular target: GlcA3S(b1-3)Gal(b1-4)GlcNAc(b1-2)Man
# Summary of the method: as §1
# [30] = molecular target: GlcA3S(b1-3)Gal(b1-4)GlcNAc(b1-3)Gal(b1-4)Glc
# Summary of the method: as §1
# [31] = molecular target: GlcNAc(a1-3)Gal(b1-4)GlcNAc
# Summary of the method: as §1
# [32] = molecular target: GlcNAc(a1-4)Gal(b1-3)GlcNAc
# Summary of the method: as §1
# [33] = molecular target: GlcNAc(a1-4)Gal(b1-4)GalNAc
# Summary of the method: as §1
# [34] = molecular target: GlcNAc(a1-4)Gal(b1-4)GlcNAc
# Summary of the method: as §1
# [35] = molecular target: GlcNAc(a1-4)Gal(b1-4)GlcNAc(b1-3)Gal(b1-4)Glc
# Summary of the method: as §1
# [36] = molecular target: GlcNAc(a1-4)Gal(b1-4)GlcNAc(b1-3)Gal(b1-4)GlcNAc
# Summary of the method: as §1
# [37] = molecular target: GlcNAc(a1-4)Gal(b1-4)GlcNAc(b1-3)Gal(b1-4)GlcNAc(b1-3)Gal(b1-4)GlcNAc
# Summary of the method: as §1
# [38] = molecular target: GlcNAc(a1-4)Gal(b1-4)GlcNAc(b1-3)Gal(b1-4)[Fuc(a1-3)]GlcNAc(b1-3)Gal(b1-4)[Fuc(a1-3)]GlcNAc
# Summary of the method: as §1
binder,measurement,setting,value
"ERGIC1-EDTA (Homo sapiens), Q969X5 (protein) MKFLVNVALVFMVVYISYIYAAAHMHHHHHHDYDIPTTENLYFQGSEVVNELYVDDPDKDSGGKIDVSLNISLPNLHCELVGLDIQDEMGRHEVGHIDNSMKIPLNNGAGCRFEGQFSINKVPGNFHVSTHSATAQPQNPDMTHVIHKLSFGDTLQVQNIHGAFNALGGADRLTSNPLASHDYILKIVPTVYEDKSGKQRYSYQYTVANKEYVAYSHTGRIIPAIWFRYDLSPITVKYTE",glycan array binding signal (z-score),[1],0.601
same,glycan array binding signal (z-score),[2],0.705
same,glycan array binding signal (z-score),[3],0.344
same,glycan array binding signal (z-score),[4],-0.485
same,glycan array binding signal (z-score),[5],-0.357
same,glycan array binding signal (z-score),[6],-0.852
same,glycan array binding signal (z-score),[7],-0.21
same,glycan array binding signal (z-score),[8],-0.531
same,glycan array binding signal (z-score),[9],-0.421
same,glycan array binding signal (z-score),[10],0.09
same,glycan array binding signal (z-score),[11],0.638
same,glycan array binding signal (z-score),[12],-0.132
same,glycan array binding signal (z-score),[13],-0.515
same,glycan array binding signal (z-score),[14],-0.578
same,glycan array binding signal (z-score),[15],0.029
same,glycan array binding signal (z-score),[16],-0.19
same,glycan array binding signal (z-score),[17],-0.091
same,glycan array binding signal (z-score),[18],0.021
same,glycan array binding signal (z-score),[19],-1.03
same,glycan array binding signal (z-score),[20],-0.302
same,glycan array binding signal (z-score),[21],0.621
same,glycan array binding signal (z-score),[22],0.05
same,glycan array binding signal (z-score),[23],0.807
same,glycan array binding signal (z-score),[24],-0.459
same,glycan array binding signal (z-score),[25],-0.518
same,glycan array binding signal (z-score),[26],0.328
same,glycan array binding signal (z-score),[27],0.706
same,glycan array binding signal (z-score),[28],-0.179
same,glycan array binding signal (z-score),[29],0.43
same,glycan array binding signal (z-score),[30],-0.72
same,glycan array binding signal (z-score),[31],-0.841
same,glycan array binding signal (z-score),[32],-0.065
same,glycan array binding signal (z-score),[33],-0.59
same,glycan array binding signal (z-score),[34],0.769
same,glycan array binding signal (z-score),[35],-0.872
same,glycan array binding signal (z-score),[36],-0.366
same,glycan array binding signal (z-score),[37],-0.145
same,glycan array binding signal (z-score),[38],1.87

# Part of the list above, as tab-separated lines:
binder	measurement	setting	value
ERGIC1-EDTA (Homo sapiens), Q969X5 (protein) MKFLVNVALVFMVVYISYIYAAAHMHHHHHHDYDIPTTENLYFQGSEVVNELYVDDPDKDSGGKIDVSLNISLPNLHCELVGLDIQDEMGRHEVGHIDNSMKIPLNNGAGCRFEGQFSINKVPGNFHVSTHSATAQPQNPDMTHVIHKLSFGDTLQVQNIHGAFNALGGADRLTSNPLASHDYILKIVPTVYEDKSGKQRYSYQYTVANKEYVAYSHTGRIIPAIWFRYDLSPITVKYTE	glycan array binding signal (z-score)	[4]	-0.485
same	glycan array binding signal (z-score)	[8]	-0.531
same	glycan array binding signal (z-score)	[24]	-0.459
